# Some results were stated once for a whole list of compounds, not compound by compound.
# Test system: human foreskin fibrobalsts (FF1)
# Test: Cell attachment assay in monolayers (peptide-coated Sepharose beads), FF1
# Type: cell-based
# Conditions: FF1 monolayer; 6 mg peptide/ml
# Method: 100 mg of dried CNBr-Sepharose Beads (yields 350 μl of swollen Sepharose Beads—gel) was introduced into a disposable polystyrene mini-column (FIG. 1), appropriate for the preparation of a 0.5-2 ml gel filtration column (Pierce, Prod #29920). The lower part of the columns is blocked by a thick glass filter and a stopper.
# 3-4 ml total volume of HCl solution (1 mM) was added to the column, and the liquid was forced to flow under vacuum pressure through the gel. This process was repeated 5 times. The final aliquot of HCl was aspirated until cracks appeared in the gel cake. 2-3 ml aliquots of coupling buffer were immediately added to the washed beads and aspirated. This step was repeated 4-5 times. The high pH hydrolyzes and opens the active groups.
# A peptide solution in coupling buffer prepared as above was immediately added to the activated SEPHAROSE BEADS Sepharose beads were used to fixate the peptides for all in-vitro assays in the column to a final binding of 6 mg peptide per ml SEPHAROSE BEADS gel. The column was closed and shaken overnight at 4° C. very gently to avoid mechanical breakage of SEPHAROSE BEADS. […]
# The tested peptides (Table 1) were coupled to Sepharose Beads at two concentrations: 6 and 12 mg/ml Sepharose Beads. […] The fraction of Sepharose Beads attached to the monolayer was monitored at different times.
row,Substance,time to reach 100% / saturated cell binding
1,PreC: positive control peptide KTRWYSMKKTTMKIIPFNR (SEQ ID NO: 10) (listed as Homo sapiens) [reference compound],less than 24 hours
2,C-Fic-a-K: peptide having the sequence KGYKYSYKVSEMKVRPAK (SEQ ID NO: 4) (listed as Homo sapiens),less than 24 hours

# — patent US8563514B2, “Peptides and pharmaceutical compositions for treating connective tissue” (Metamorefix, priority 2007, dated 2013)
